Data taken from PubChem BioAssay AID2685 (National Center for Advancing Translational Sciences (NCATS), 2010).
About 2,100 (0.66%) of roughly 320,000 compounds were called active. Inconclusive means that the source gave no clear call. Such entries were picked first, then a sample of the others. Calls follow the shape of the dose curve; as a rule, active = well fitted inhibition curve with a large enough effect in the signal ratio, with a control signal flat (not every such curve was filed as active); inconclusive = small, poorly fitted or top-dose-only effect, or effect the other way, or a change in a side signal; inactive = flat fitted curve, though single readings scatter; the % refers to the signal ratio. Potencies beside an inconclusive call are fits to weak or partial responses and may not hold up.

experiment: qHTS Assay for Lipid Storage Modulators in Drosophila S3 Cells; settings: BODIPY lipid droplet fluorescence, 18-24 h, cells fed with added oleic acid; lipid storage change, negative = inhibition: at 46.1 µM (top of the series) unless noted
How it was run: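 Laser-scanning cytometry quantifies lipid droplet accumulation (500–530 nm total intensity; droplet/cell object ratio) in oleic acid-fed (400 uM added) Drosophila S3 cells treated with a concentration series. 20 uM Triacsin C defined 100% inhibition.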
% is scaled to controls: 0 for no effect and ±100 for the full control effect; potency is read from the fitted curve at half-maximal effect.

Structure (SMILES) | lipid storage change, negative = inhibition | Potency
CC(C)OCCCNC(=O)CNC(=O)c1ccc(Cl)c(Cl)c1 | inconclusive: 1.18% | 
CCCC(=O)c1cc(F)c(N2CCN(S(=O)(=O)c3ccccc3)CC2)cc1C |  | inconclusive: 13 µM [activator, partial curve]
CCOC(=O)c1sc(NC(=O)c2c(OC)cccc2OC)nc1C |  | inconclusive: 8.2 µM [activator, partial curve]
COc1ccc(CCN(C)C(=O)CN2C(=O)c3ccccc3S2(=O)=O)cc1OC |  | inconclusive: 20.6 µM [activator, partial curve]
CCCCNC(=O)c1ccccc1Cl | inconclusive: -46.8% | 
Cc1ccc2cccc(N=Cc3c(C)[nH]n(-c4ccccc4)c3=O)c2n1 |  | inconclusive: 29.1 µM [falling, single point]
O=c1[nH]cnc(O)c1C(c1ccc([N+](=O)[O-])cc1)c1c(O)nc[nH]c1=O |  | inconclusive: 6.51 µM [activator, single point]
COc1cc(OC)c(N2CC(C(=O)Nc3cc(Cl)ccc3N3CCOCC3)CC2=O)cc1Cl (stereo not drawn) | inconclusive: 9.28% | 
CC1=C(n2nnc([N+](=O)[O-])n2)C(c2cccnc2)C(C#N)=C(N)O1 (stereo not drawn) | inconclusive: -15.5% | 
Cc1cc(N=Cc2c(O)n(-c3cccc(Cl)c3)c(=O)c3ccccc23)no1 | inconclusive: 10.8% | 
CC1CCN(Cc2ccc(NC(=O)CC3Oc4ccccc4NC3=O)cc2)CC1 (stereo not drawn) | inconclusive: 11% | 
COc1ccc(CN2C(=O)c3oc4ccccc4c(=O)c3C2c2ccc(O)c(OC)c2)cc1 (stereo not drawn) |  | inconclusive: 6.51 µM [activator, single point]
Cc1noc2ncnc(Oc3ccc(F)cc3)c12 | inconclusive: 17% | 
O=[N+]([O-])c1ccc(N/N=C/c2cccc(O)c2O)cc1 | inconclusive: -87.1% | 
CC(C)c1ccccc1NC(=S)NC(C)c1ccccc1 (stereo not drawn) | inconclusive: -9.86% | 
Cc1ccc(CNC(=O)C2CCCN2S(=O)(=O)c2ccc(Cl)cc2)cc1 (stereo not drawn) | inconclusive: 24.3% | 
c1ccc(Cc2nnc3sc(-c4ccccn4)nn23)cc1 | inactive | 
COc1ccc(/C=C/C(=O)Nc2cccc(S(=O)(=O)NC3=NCCCCC3)c2)cc1OC |  | inconclusive: 29.1 µM [falling, single point]
O=C(NCc1n[nH]c(=S)n1-c1ccc(Cl)c(Cl)c1)c1ccc(S(=O)(=O)N2CCCCC2)cc1 | inconclusive: 38.2% | 
O=C(c1ccc2nc[nH]c2c1)N1CCN(c2ncc(C(F)(F)F)cc2Cl)CC1 |  | inconclusive: 29.1 µM [falling, single point]
Cc1csc(=O)n1CCC(=O)OCC(=O)c1ccc(Br)cc1 |  | inconclusive: 0.58 µM [activator, single point]
CNC(=O)Cn1c(C)cc(=O)c2cccc(C)c21 | inactive | 
O=C(Nc1nncs1)c1cc2c(s1)CCC2 | inconclusive: -12.2% | 
O=C(c1cc([N+](=O)[O-])ccc1N1CCOCC1)N1CCN(c2ccccc2)CC1 | inconclusive: 42.2% | 

Single records, as listed above.
CC(C)c1ccccc1NC(=S)NC(C)c1ccccc1 (stereo not drawn) in the list: lipid storage change, negative = inhibition: inconclusive: -9.86%
COc1ccc(CCN(C)C(=O)CN2C(=O)c3ccccc3S2(=O)=O)cc1OC in the list: Potency: inconclusive: 20.6 µM [activator, partial curve]
COc1ccc(/C=C/C(=O)Nc2cccc(S(=O)(=O)NC3=NCCCCC3)c2)cc1OC in the list: Potency: inconclusive: 29.1 µM [falling, single point]
CC(C)OCCCNC(=O)CNC(=O)c1ccc(Cl)c(Cl)c1 in the list: lipid storage change, negative = inhibition: inconclusive: 1.18%

Next part.

Structure (SMILES) | lipid storage change, negative = inhibition | Potency
Cc1ccc(N2CCCCn3c2nc2c3c(=O)n(CC(=O)O)c(=O)n2C)cc1 |  | inconclusive: 23.1 µM [activator, single point]
CCNc1nc(=S)nc(NCc2ccccc2)[nH]1 | inconclusive: 31.8% | 
COc1ccc(C(=O)Nc2cc(C)nn2-c2ccc(C)cc2)cc1 | inconclusive: 22.1% | 
CCOC(=O)c1cc(OC(=O)c2ccccc2)n(-c2ccccc2)n1 | inconclusive: -15.8% | 
COc1ccc2nc(C)cc(SCC(=O)Nc3c(C)cccc3C)c2c1 |  | inconclusive: 3.66 µM [activator, partial curve]
CCN(CC)S(=O)(=O)c1cc(NC(=O)CNc2c(C)n(C)n(-c3ccccc3)c2=O)ccc1C |  | inconclusive: 0.0058 µM [falling, full curve, poor fit]
COc1ccc(C2CC(=O)c3ccccc3O2)cc1 (stereo not drawn) | inconclusive: 28.3% | 
N#CCN(C(=O)COC(=O)CCCNC(=O)c1ccc(Cl)cc1)c1ccccc1 | inconclusive: 19.9% | 
Cc1ccc(CNC(=O)C2CCCN(S(=O)(=O)c3cnc[nH]3)C2)cc1 (stereo not drawn) | inactive | 
COc1ccccc1N1CCN(C(=O)CSc2nnc(NC(=O)C3CC3)s2)CC1 | inconclusive: 6.41% | 
C=CCN1C(=Nc2cccnc2)SCC1(O)c1ccc(C)cc1 (stereo not drawn) |  | inconclusive: 13 µM [falling, single point]
Cc1c(C(=O)Nc2ccc(S(=O)(=O)N3CCOCC3)cc2)cccc1[N+](=O)[O-] |  | inconclusive: 0.103 µM [falling, full curve, poor fit]
CCOC(=O)N1CCN(C(=S)Nc2cc(S(=O)(=O)N3CCOCC3)ccc2Cl)CC1 | inconclusive: 37.8% | 
CCN(CC)S(=O)(=O)c1ccc(N2CCOCC2)c(NC(=O)C(C)(C)C)c1 | inconclusive: -2.44% | 
CCCc1nc2c(nnn2Cc2ccccc2Cl)c(=O)[nH]1 | inconclusive: 7.43% | 
Cc1ccc(CNC(=O)C2CCN(S(=O)(=O)c3c(C)noc3/C=C/c3ccco3)CC2)cc1 | inconclusive: 7.2% | 
C=CCOc1ccc(C2NC(=O)c3ccccc3O2)cc1 (stereo not drawn) | inconclusive: 50.8% | 
CCCCNC(=O)/C(=C/c1ccccc1)NC(C)=O |  | inconclusive: 29.1 µM [falling, single point]
Cc1cc2c3ccccc3ncn2n1 | inconclusive: 7.89% | 
Cc1nnc(N2C(=O)C(=O)/C(=C(/O)c3ccc4c(c3)OCCO4)C2c2ccc(F)cc2)s1 (stereo not drawn) |  | inconclusive: 0.146 µM [activator, full curve]
Cc1ccc(NC(=O)CN2CCN(C)CC2)cc1S(=O)(=O)N1CCOCC1 | inconclusive: 19.8% | 
O=C(NC(=S)NC1CCS(=O)(=O)C1)c1cccc([N+](=O)[O-])c1 (stereo not drawn) |  | inconclusive: 29.1 µM [falling, single point]
O=C(Nc1ccc2c(c1)OCO2)C1CC(=O)N(c2ccc(F)cc2)C1 (stereo not drawn) | inconclusive: 162% | 
Cc1oc2cc([N+](=O)[O-])c(O)c([N+](=O)[O-])c2c1C(=O)c1ccc(Br)cc1 |  | inconclusive: 6.51 µM [cytotoxic, single point]
